Measurements from the supplement of paper PMC10849652.
Some of the results follow.

Amino acid sequences for entries named in this document (tags omitted). A change or cut given only in a name is not applied to a line headed by its entry.
UniProt P02786, whole entry, looked up: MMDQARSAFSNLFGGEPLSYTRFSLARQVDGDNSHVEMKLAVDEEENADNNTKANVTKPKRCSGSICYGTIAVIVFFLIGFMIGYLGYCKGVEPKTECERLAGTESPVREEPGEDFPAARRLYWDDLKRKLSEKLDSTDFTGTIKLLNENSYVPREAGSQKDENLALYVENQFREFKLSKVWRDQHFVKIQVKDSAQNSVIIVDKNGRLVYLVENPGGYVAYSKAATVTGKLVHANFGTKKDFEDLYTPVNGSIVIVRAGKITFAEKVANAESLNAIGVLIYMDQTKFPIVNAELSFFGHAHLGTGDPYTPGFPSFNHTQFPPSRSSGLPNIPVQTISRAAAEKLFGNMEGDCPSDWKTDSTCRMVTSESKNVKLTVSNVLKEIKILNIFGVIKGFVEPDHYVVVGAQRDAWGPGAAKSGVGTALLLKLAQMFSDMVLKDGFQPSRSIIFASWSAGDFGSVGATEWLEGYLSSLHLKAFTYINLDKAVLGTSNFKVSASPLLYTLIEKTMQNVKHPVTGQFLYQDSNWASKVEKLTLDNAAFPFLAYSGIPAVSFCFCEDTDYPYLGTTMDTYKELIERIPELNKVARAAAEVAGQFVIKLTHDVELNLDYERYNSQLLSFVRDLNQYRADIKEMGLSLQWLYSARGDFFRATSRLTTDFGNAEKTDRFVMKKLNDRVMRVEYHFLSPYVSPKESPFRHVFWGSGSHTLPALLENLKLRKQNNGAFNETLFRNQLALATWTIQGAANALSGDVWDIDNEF
UniProt Q13428: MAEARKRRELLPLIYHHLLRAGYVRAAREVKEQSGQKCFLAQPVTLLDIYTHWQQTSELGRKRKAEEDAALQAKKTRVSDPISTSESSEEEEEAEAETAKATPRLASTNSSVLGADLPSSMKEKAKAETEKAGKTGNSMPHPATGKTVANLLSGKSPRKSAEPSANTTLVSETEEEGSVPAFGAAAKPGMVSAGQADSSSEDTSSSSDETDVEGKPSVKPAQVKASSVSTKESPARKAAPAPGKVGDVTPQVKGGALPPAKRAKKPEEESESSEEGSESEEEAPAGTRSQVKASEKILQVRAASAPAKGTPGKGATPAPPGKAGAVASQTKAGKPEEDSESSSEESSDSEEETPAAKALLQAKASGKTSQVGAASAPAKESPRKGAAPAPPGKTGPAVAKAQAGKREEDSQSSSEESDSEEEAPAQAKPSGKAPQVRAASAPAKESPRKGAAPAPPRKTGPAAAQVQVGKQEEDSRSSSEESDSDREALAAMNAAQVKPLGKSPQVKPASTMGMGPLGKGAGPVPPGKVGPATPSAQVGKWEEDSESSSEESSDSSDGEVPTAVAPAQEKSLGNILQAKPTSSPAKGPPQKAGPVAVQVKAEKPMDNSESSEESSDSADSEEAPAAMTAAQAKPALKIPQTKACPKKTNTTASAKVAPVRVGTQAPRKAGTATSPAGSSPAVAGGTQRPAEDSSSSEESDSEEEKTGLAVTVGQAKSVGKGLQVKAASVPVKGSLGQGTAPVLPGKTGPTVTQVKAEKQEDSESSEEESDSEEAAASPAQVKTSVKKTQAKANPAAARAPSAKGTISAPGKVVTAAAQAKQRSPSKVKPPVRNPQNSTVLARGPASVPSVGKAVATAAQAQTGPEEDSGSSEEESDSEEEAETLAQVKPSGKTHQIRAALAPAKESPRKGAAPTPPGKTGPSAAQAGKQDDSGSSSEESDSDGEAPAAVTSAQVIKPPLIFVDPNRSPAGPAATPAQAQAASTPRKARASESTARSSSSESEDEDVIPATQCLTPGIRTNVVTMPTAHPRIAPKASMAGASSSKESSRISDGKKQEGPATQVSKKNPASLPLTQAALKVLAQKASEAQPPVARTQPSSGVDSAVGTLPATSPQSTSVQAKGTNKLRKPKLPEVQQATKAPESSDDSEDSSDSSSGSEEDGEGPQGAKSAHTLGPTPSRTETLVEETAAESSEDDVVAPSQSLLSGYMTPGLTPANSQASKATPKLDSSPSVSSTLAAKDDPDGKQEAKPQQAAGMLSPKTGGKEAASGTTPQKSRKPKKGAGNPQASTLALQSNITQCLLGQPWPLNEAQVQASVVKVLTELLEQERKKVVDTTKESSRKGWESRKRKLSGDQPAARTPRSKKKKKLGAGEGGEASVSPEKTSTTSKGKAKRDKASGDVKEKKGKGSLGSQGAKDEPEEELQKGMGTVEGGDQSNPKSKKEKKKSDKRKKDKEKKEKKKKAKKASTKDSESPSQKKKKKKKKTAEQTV
UniProt Q8NHU6: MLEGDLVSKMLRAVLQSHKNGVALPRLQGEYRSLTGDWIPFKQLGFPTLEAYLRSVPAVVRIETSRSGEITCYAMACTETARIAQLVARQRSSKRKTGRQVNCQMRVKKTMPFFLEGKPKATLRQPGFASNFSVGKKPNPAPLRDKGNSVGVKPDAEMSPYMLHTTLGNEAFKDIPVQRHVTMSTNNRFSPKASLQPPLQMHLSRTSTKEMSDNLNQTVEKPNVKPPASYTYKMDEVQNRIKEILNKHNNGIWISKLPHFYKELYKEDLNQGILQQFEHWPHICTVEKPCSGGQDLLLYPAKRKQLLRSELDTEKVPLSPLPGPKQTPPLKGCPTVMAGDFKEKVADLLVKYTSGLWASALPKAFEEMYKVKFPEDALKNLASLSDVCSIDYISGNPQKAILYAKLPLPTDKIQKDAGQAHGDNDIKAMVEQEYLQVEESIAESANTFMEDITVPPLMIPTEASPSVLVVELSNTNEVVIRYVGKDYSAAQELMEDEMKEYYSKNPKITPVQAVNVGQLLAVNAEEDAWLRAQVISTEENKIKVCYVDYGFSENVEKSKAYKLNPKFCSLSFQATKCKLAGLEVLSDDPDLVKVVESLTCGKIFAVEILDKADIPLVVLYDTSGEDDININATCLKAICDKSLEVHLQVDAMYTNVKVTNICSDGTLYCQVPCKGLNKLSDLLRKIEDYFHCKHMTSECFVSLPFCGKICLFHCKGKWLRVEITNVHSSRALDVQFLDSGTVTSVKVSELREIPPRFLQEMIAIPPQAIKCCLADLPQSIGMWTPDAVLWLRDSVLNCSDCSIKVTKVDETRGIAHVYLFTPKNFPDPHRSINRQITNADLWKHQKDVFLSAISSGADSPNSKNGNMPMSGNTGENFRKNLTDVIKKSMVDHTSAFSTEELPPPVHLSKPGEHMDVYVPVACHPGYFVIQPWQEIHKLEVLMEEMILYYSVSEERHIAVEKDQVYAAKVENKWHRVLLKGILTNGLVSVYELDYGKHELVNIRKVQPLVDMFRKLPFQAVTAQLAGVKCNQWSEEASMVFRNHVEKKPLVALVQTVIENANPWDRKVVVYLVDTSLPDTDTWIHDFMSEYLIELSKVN
UniProt Q9BQ70: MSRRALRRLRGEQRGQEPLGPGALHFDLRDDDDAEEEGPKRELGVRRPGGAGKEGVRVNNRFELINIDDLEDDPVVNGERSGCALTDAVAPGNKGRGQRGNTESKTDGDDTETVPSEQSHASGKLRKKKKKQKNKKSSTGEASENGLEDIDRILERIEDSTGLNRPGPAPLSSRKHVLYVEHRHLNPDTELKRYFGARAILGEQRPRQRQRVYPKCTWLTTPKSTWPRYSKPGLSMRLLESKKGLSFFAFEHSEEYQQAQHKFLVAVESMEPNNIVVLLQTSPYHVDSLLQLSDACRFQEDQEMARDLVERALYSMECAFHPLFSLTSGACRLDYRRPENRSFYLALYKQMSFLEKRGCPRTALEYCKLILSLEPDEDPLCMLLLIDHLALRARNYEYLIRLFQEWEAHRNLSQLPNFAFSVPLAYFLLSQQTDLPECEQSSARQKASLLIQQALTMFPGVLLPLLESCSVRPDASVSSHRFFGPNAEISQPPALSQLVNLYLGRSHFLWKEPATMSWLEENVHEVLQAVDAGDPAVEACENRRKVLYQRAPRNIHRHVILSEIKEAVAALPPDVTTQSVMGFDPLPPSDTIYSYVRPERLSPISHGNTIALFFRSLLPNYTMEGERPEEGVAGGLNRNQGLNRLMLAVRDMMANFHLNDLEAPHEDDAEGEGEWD
UniProt Q9UHD2: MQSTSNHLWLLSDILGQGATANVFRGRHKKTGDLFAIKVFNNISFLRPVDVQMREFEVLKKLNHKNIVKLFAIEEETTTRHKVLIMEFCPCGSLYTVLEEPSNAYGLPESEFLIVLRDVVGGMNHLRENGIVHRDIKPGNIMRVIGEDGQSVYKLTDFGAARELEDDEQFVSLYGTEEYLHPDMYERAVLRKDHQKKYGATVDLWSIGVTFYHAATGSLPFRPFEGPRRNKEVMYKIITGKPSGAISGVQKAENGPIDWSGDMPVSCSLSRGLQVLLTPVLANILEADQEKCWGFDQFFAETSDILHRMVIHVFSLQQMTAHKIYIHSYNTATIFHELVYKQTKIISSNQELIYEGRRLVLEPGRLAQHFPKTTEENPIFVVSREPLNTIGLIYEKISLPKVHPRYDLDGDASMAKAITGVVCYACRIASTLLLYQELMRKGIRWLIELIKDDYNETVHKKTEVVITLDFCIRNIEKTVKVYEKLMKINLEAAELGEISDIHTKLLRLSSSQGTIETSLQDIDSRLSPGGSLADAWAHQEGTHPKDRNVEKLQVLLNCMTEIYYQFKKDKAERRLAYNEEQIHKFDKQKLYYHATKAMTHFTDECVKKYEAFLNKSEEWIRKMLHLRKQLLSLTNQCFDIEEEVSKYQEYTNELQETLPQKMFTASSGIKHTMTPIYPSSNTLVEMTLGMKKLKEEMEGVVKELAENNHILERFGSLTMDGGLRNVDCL
UniProt Q9Y4C2: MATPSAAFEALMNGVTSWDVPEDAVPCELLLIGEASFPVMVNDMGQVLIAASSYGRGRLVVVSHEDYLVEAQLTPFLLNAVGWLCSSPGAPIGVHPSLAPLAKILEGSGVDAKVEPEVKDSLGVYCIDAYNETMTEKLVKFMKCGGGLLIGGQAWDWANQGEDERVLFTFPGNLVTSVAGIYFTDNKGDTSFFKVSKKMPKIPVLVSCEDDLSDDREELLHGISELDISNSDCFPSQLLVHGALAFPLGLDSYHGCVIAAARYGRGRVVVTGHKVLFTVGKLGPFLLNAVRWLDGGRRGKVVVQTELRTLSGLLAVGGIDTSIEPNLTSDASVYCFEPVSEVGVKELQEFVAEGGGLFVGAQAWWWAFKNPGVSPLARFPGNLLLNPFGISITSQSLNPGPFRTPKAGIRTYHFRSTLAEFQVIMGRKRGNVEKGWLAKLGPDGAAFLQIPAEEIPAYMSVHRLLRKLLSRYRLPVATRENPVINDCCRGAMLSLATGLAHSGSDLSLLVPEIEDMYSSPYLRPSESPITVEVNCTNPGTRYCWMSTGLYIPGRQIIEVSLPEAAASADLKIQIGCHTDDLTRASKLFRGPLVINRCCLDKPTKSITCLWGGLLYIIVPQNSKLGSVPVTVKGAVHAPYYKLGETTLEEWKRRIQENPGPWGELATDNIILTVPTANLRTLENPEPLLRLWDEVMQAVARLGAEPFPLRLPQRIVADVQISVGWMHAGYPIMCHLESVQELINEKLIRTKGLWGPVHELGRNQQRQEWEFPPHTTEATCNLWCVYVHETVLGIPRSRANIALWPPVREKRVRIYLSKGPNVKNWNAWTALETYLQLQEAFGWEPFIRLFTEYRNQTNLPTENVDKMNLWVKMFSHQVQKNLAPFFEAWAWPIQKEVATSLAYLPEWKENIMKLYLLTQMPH
UniProt Q9HA65: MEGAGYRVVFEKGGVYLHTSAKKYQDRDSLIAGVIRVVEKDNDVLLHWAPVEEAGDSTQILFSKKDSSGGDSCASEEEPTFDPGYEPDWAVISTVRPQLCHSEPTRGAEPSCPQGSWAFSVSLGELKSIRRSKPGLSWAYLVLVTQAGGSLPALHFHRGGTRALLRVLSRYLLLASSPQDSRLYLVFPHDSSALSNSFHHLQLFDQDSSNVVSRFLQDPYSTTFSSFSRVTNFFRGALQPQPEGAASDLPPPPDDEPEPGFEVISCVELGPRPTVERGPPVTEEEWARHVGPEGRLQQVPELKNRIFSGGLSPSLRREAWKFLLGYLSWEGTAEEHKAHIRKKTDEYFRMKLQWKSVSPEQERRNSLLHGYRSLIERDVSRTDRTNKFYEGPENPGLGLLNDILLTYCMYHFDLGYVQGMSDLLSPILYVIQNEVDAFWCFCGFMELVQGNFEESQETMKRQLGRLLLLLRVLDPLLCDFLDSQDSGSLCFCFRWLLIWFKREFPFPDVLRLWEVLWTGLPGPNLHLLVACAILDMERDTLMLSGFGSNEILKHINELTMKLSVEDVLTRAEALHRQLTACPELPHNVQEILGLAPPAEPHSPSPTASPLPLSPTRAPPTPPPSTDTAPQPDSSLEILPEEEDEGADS

Legend:
Experiment in all cases: log2 fold change, soluble protein after heating vs DMSO (PISA); higher = thermal stabilisation; K562 lysate, 10 uM; active = over 0.2 and 3.5 SD of the protein, either way, in both replicates (recomputed)
[1] = compound: C1=CC=C(C=C1)[C@H](COC2=CC3=C(C=C2)NC(=O)N3)NC(=O)C4=CC=CN(C4=O)CC5=CC(=C(C=C5)F)F
Method in brief: (§1)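 K562 pellets were dounce-homogenised in PBS pH 7.4 containing 1 mM MgCl2, and the crude extract, at 1 mg/mL protein, was exposed to 10 μM compound for 30 min. Aliquots were heated for 3 min across 48°C-58°C, pooled, brought to 0.5% NP-40 at 4°C and spun at 21,000xg for 90 min, with the supernatant taken as soluble protein. TMTpro 16plex LC-MS/MS with equalised channel sums quantified that protein. Values are log-two fold changes in thermal stability relative to solvent controls, taken from duplicates.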

[2] = compound: CC1=C(SC2=C1C(=N[C@H](C3=NN=C(N32)C)CC(=O)N)C4=CC=C(C=C4)Cl)C
Method in brief: as §1

[3] = compound: CC1=C2C(=CC=C1)N=C(N(C2=O)C3=CC=CC=C3C)CN4C=NC5=C(N=CN=C54)N
Method in brief: as §1

[4] = compound: Cc1sc2c(c1C)C(c1ccc(Cl)cc1)=N[C@@H](CC(=O)OC(C)(C)C)c1nnc(C)n1-2
Method in brief: as §1

[5] = compound: c1ccc([C@@H]2C[C@H]2NC2CCNCC2)cc1
Method in brief: as §1

Measured: log2 fold change

TARSL2 (UniProt A2RTX5)
inactive: [1] -0.009 | [2] 0 | [3] 0.041 | [4] -0.017 | [5] 0.01

TFRC (UniProt P02786)
inactive: [1] -0.017 | [2] 0.014 | [3] -0.001 | [4] -0.011 | [5] 0.006

TCOF1 isoform 4 (UniProt Q13428)
inactive: [1] 0.014 | [2] 0.013 | [3] -0.003 | [4] -0.014 | [5] -0.043

TDRD7 (UniProt Q8NHU6)
inactive: [1] 0.038 | [2] 0.054 | [3] 0.005 | [4] -0.021 | [5] 0.038

TCF25 (UniProt Q9BQ70)
inactive: [1] -0.061 | [2] -0.017 | [3] -0.082 | [4] 0.089 | [5] 0.027

TBK1 (UniProt Q9UHD2)
inactive: [1] -0.012 | [2] 0.021 | [3] -0.031 | [4] -0.003 | [5] -0.023

TCAF1 (UniProt Q9Y4C2)
inactive: [1] -0.026 | [2] 0.012 | [3] 0.05 | [4] 0.001 | [5] 0.05

TAF7 (UniProt Q15545)
inactive: [1] 0.006 | [2] 0.02 | [3] 0.032 | [4] 0 | [5] 0.004

TBC1D17 (UniProt Q9HA65)
inactive: [1] -0.002 | [2] 0.012 | [3] 0.014 | [4] -0.091 | [5] 0.032
